# Measured values reported in PubChem BioAssay AID720614 (Broad Institute, 2013).
# The shares of active, inactive and inconclusive entries below differ from those in the screen. Calls of active or inactive are those of the source. The rule behind the calls is not given here.
# Experiment: caspase 3/7 activation in SNB19 cells, mechanism study for HRAS target identification, cell-based, luminescence, several timepoints, dry powder (AID 720614)
# Settings: SNB19 (HRAS) caspase 3/7 apoptosis luminescence, multiple timepoints; at 35 µM (top of the series)
row,Structure (SMILES),caspase 3/7 activation
1,Cc1onc(C(=O)N2CCN(C(c3ccc(Cl)cc3)c3ccc(OCCOCCOCCNC(=O)OC(C)(C)C)cc3)CC2)c1[N+](=O)[O-] (centres undefined),inactive: 12.2%
2,COc1cccc2c1C(=O)c1c(O)c3c(c(O)c1C2=O)C[C@@](O)(C(=O)CO)C[C@@H]3OC1C[C@H](N)[C@H](O)[C@H](C)O1 (some centres undefined),inconclusive: -15.9%
3,O=C(NCCOCCOCCOc1ccc(N(C(=O)CCl)C(C(=O)NCCc2ccccc2)c2cccs2)cc1Cl)c1ccc(COC2C#CCCCCC2)cc1 (centres undefined),inconclusive: 27.1%
4,Cc1onc(C(=O)N2CCN(C(c3ccc(Cl)cc3)c3ccc(Cl)cc3)CC2)c1[N+](=O)[O-],inactive: 12.2%
